PubChem BioAssay AID504774 – Drosophila RNAi Screening Center | 2011

- Aim: 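Knock-downs that shift viability of MMS-exposed cells relative to untreated ones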 (primary screen)
- Cell system: Drosophila Kc167 cells
- Reagent: long dsRNA against Drosophila genes, about 0.25 µg dsRNA per well
- Duration: about 6 days: 3 days knock-down, then 3 days with or without MMS
- Challenge: methyl methanesulphonate 0.004% (w/v) for 3 days after knock-down
- Measured: 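Viability in wells given MMS, read as ATP luminescence, normalised by quantiles plate by plate and averaged across replicates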
- Direction: mean viability with MMS: higher = more surviving cells after MMS
The screen tested about 23,000 reagents; below is an unselected part of those that have a named target and a result. 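Values are quantile-normalised luminescence on an arbitrary scale; higher means more cells surviving MMS.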 Names joined by + are all predicted targets of the reagent. Not all columns of the deposit are shown.

target,dsRNA,mean viability with MMS
CG15772,DRSC18078,3.45e6
Coprox,DRSC01996,3.63e6
Takl1,DRSC13443,3.44e6
CG7289,DRSC00697,3.65e6
ssp3,DRSC02669,3.57e6
ssp3,DRSC02670,3.58e6
CG5355,DRSC02844,3.66e6
CG42552 (retired record),DRSC11512,3.50e6
Charon,DRSC00679,3.71e6
CG33978,DRSC17106,3.54e6
CheA7a,DRSC17965,3.52e6
UGP + PGRP-LF,DRSC10418,3.51e6
CG34444,DRSC06435,3.54e6
CG32987,DRSC22373,3.15e6

The list goes on; the last 2 above are carried over.
target,dsRNA,mean viability with MMS
CG34444,DRSC06435,3.54e6
CG32987,DRSC22373,3.15e6
CG15255,DRSC01869,3.39e6
Snx3,DRSC16027,3.53e6
Cyp304a1,DRSC16623,3.50e6
CG14883,DRSC15007,3.33e6
MRP,DRSC02942,3.93e6
Cow,DRSC13601,1.82e6
Cow,DRSC14680,3.70e6
gammaTub23C,DRSC00820,3.52e6
gammaCOP,DRSC16955,3.35e6
Afti,DRSC16440,3.56e6
CG7483,DRSC16249,3.55e6
CG7483,DRSC22432,2.92e6
CG40486,DRSC20619,3.49e6
l(3)07882,DRSC15882,3.53e6
